# Experiments:
# [1] = Cytotoxicity assay; type: cell-based; conditions: human, Huh7 cells
# [2] = tested on: WT-JEV; experiment: Antiviral assay of WT-JEV in Huh7 cells, viral titer by plaque assay
smiles,measurement,setting,value
"CCCCCCCCCCCCCCCC[n+]1ccccc1 [cetylpyridinium chlorid, cetylpyridinium chloride]",CC50 at 48 h,[1],7.2 µM
same,"SI (selective index, ratio of CC50 to EC50)","[2]; Huh7 cells, CC50/EC50",> 10
same,EC50,"[2]; Japanese encephalitis virus, Huh-7, read-out: EC50 (50% reduction of viral titer)",0.455 µM
